The values below come from publication PMC7181604, “Arabidopsis FHY3 and FAR1 integrate light and strigolactone signaling to regulate branching”.

No constants are given. Whether binding was seen depends on the method and setting. Some entries that bind do so weakly or less than the wild type. Sequences can lack the tags named with a protein.

Assay [1] has as its target T1, SMXL8 (yeast two-hybrid fusion) (Arabidopsis thaliana) (UniProt F4IGZ2).
T1 sequence: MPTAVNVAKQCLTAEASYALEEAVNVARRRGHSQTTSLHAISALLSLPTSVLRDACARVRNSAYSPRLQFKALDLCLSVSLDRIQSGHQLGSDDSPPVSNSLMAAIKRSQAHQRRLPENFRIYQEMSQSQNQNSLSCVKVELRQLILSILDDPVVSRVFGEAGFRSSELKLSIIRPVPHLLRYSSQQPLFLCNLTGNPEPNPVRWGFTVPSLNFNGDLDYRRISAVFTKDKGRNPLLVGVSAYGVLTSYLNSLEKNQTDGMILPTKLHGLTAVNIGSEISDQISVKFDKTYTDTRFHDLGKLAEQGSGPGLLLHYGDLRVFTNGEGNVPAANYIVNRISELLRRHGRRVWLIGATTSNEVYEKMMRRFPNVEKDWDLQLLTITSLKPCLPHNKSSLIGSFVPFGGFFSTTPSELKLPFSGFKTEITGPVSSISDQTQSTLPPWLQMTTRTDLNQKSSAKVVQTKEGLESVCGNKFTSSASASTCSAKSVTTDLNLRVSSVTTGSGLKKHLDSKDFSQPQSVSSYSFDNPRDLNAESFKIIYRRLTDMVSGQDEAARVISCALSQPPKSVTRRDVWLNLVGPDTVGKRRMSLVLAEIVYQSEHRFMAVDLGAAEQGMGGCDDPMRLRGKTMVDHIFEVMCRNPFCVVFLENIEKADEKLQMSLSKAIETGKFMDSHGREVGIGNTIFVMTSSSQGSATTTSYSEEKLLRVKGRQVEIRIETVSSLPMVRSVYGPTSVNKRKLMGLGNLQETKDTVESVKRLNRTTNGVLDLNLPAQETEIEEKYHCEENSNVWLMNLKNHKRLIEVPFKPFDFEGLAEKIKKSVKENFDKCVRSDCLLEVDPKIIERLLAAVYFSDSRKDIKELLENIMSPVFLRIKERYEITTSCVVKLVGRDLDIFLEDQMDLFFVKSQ
The experiment in a line: two-hybrid; LexA/AD system in yeast strain EGY48 plus H18; SD/-Ura/-Trp/-His, then raffinose, galactose and X-gal for blue color development.

Assay [2] deals with T2, SPL15 (yeast two-hybrid fusion) (Arabidopsis thaliana) (UniProt Q9M2Q6).
T2 sequence: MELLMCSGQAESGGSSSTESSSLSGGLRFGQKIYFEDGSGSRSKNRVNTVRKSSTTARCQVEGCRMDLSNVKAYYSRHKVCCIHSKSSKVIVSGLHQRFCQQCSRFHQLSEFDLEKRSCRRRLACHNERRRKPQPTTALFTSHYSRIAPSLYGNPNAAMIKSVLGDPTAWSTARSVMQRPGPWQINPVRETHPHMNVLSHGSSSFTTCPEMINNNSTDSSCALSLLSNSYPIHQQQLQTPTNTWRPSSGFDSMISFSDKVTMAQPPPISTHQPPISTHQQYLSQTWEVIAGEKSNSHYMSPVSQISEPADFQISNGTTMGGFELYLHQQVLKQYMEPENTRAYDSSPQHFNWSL
Described as above.

B1: FAR1 (yeast two-hybrid fusion) (protein, UniProt Q9SWG3 1-827)
chain: MDLQENLVSDAGDDHMVDIVVEPHSNRDIGIVDEFNIGGDVGFSGDLDLEPRNGIDFDTHEAAYIFYQEYAKSMGFTTSIKNSRRSKKTKDFIDAKFACSRYGVTPESESSGSSSRRSTVKKTDCKASMHVKRRPDGKWIIHEFVKDHNHELLPALAYHFRIQRNVKLAEKNNIDILHAVSERTKKMYVEMSRQSGGYKNIGSLLQTDVSSQVDKGRYLALEEGDSQVLLEYFKRIKKENPKFFYAIDLNEDQRLRNLFWADAKSRDDYLSFNDVVSFDTTYVKFNDKLPLALFIGVNHHSQPMLLGCALVADESMETFVWLIKTWLRAMGGRAPKVILTDQDKFLMSAVSELLPNTRHCFALWHVLEKIPEYFSHVMKRHENFLLKFNKCIFRSWTDDEFDMRWWKMVSQFGLENDEWLLWLHEHRQKWVPTFMSDVFLAGMSTSQRSESVNSFFDKYIHKKITLKEFLRQYGVILQNRYEEESVADFDTCHKQPALKSPSPWEKQMATTYTHTIFKKFQVEVLGVVACHPRKEKEDENMATFRVQDCEKDDDFLVTWSKTKSELCCFCRMFEYKGFLCRHALMILQMCGFASIPPQYILKRWTKDAKSGVLAGEGADQIQTRVQRYNDLCSRATELSEEGCVSEENYNIALRTLVETLKNCVDMNNARNNITESNSQLNNGTHEEENQVMAGVKATKKKTVYRKRKGQQEASQMLESQQSLQPMETISSEAMDMNGYYGPQQNVQGLLNLMEPPHEGYYVDQRTIQGLGQLNSIAPAQDSFFTNQQAMSGMVGQIDFRPPPNFTYTLQEEHLSSAQLPGSSSRQL
Take B1: the binding result in assay [1] is on record as “no binding”; in assay [2], “binds”.

B2: FHY3 (yeast two-hybrid fusion) (protein, UniProt Q9LIE5 1-839)
chain: MDIDLRLHSGDLCKGDDEDRGLDNVLHNEEDMDIGKIEDVSVEVNTDDSVGMGVPTGELVEYTEGMNLEPLNGMEFESHGEAYSFYQEYSRAMGFNTAIQNSRRSKTTREFIDAKFACSRYGTKREYDKSFNRPRARQSKQDPENMAGRRTCAKTDCKASMHVKRRPDGKWVIHSFVREHNHELLPAQAVSEQTRKIYAAMAKQFAEYKTVISLKSDSKSSFEKGRTLSVETGDFKILLDFLSRMQSLNSNFFYAVDLGDDQRVKNVFWVDAKSRHNYGSFCDVVSLDTTYVRNKYKMPLAIFVGVNQHYQYMVLGCALISDESAATYSWLMETWLRAIGGQAPKVLITELDVVMNSIVPEIFPNTRHCLFLWHVLMKVSENLGQVVKQHDNFMPKFEKCIYKSGKDEDFARKWYKNLARFGLKDDQWMISLYEDRKKWAPTYMTDVLLAGMSTSQRADSINAFFDKYMHKKTSVQEFVKVYDTVLQDRCEEEAKADSEMWNKQPAMKSPSPFEKSVSEVYTPAVFKKFQIEVLGAIACSPREENRDATCSTFRVQDFENNQDFMVTWNQTKAEVSCICRLFEYKGYLCRHTLNVLQCCHLSSIPSQYILKRWTKDAKSRHFSGEPQQLQTRLLRYNDLCERALKLNEEASLSQESYNIAFLAIEGAIGNCAGINTSGRSLPDVVTSPTQGLISVEEDNHSRSAGKTSKKKNPTKKRKVNPEQDVMPVAAPESLQQMDKLSPRTVGIESYYGTQQSVQGMVQLNLMGPTRDNFYGNQQTMQGLRQLNSIAPSYDSYYGPQQGIHGQGVDFFRPANFSYDIRDDPNVRTTQLHEDASRHS
In the case of B2, the values for the binding result in assay [1] and in assay [2] were “no binding” and “binds”, respectively.
